Results are given in words; binding and its absence hold for the method and conditions named. In cells and extracts the contact can be indirect. Some entries that bind do so weakly or less than the wild type.
Biological target: Lymphoid enhancer-binding factor-1 (LEF1) (human (in human HCC cell lines)) (UniProt Q9UJU2)
Test: co-IP; protein samples of HCC cells incubated with LEF1 antibody (1:50) or IgG overnight at 4 °C, Protein A/Protein G magnetic beads 3 h at 4 °C, washed, eluted in SDS loading buffer, western blot; legend calls it an exogenous IP

Amino acid sequences for entries named in this document (tags omitted).
UniProt Q9UJU2: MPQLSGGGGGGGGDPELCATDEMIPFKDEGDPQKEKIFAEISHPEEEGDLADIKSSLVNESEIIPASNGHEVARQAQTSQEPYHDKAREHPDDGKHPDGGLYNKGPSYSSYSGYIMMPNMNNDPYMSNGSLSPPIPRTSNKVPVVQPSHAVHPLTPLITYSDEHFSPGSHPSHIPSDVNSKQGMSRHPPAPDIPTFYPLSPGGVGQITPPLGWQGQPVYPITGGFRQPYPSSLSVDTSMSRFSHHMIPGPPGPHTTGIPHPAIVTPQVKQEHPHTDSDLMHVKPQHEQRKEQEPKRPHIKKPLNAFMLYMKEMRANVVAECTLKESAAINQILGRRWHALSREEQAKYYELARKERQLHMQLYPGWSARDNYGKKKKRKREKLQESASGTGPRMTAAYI

binding: binds
B1: Zinc finger MIZ type containing 2 (ZMIZ2) (protein, UniProt Q8NF64 1-920)
chain: MNSMNPMKPALPPAPHGDGSFAYESVPWQQSATQPAGSLSVVTTVWGVGNATQSQVLGNPMGPAGSPSGSSMMPGVAGGSSALTSPQCLGQQAFAEGGANKGYVQQGVYSRGGYPGAPGFTTGYAGGPGGLGLPSHAARPSTDFTQAAAAAAVAAAAATATATATATVAALQEKQSQELSQYGAMGAGQSFNSQFLQHGGPRGPSVPAGMNPTGIGGVMGPSGLSPLAMNPTRAAGMTPLYAGQRLPQHGYPGPPQAQPLPRQGVKRTYSEVYPGQQYLQGGQYAPSTAQFAPSPGQPPAPSPSYPGHRLPLQQGMTQSLSVPGPTGLHYKPTEQFNGQGASFNGGSVSYSQPGLSGPTRSIPGYPSSPLPGNPTPPMTPSSSVPYMSPNQEVKSPFLPDLKPNLNSLHSSPSGSGPCDELRLTFPVRDGVVLEPFRLQHNLAVSNHVFQLRDSVYKTLIMRPDLELQFKCYHHEDRQMNTNWPASVQVSVNATPLTIERGDNKTSHKPLYLKHVCQPGRNTIQITVTACCCSHLFVLQLVHRPSVRSVLQGLLKKRLLPAEHCITKIKRNFSSGTIPGTPGPNGEDGVEQTAIKVSLKCPITFRRIQLPARGHDCRHIQCFDLESYLQLNCERGTWRCPVCNKTALLEGLEVDQYMLGILIYIQNSDYEEITIDPTCSWKPVPVKPDMHIKEEPDGPALKRCRTVSPAHVLMPSVMEMIAALGPGAAPFAPLQPPSVPAPSDYPGQGSSFLGPGTFPESFPPTTPSTPTLAEFTPGPPPISYQSDIPSSLLTSEKSTACLPSQMAPAGHLDPTHNPGTPGLHTSNLGAPPGPQLHHSNPPPASRQSLGQASLGPTGELAFSPATGVMGPPSMSGAGEAPEPALDLLPELTNPDELLSYLGPPDLPTNNNDDLLSLFENN
